# Reference: the supplement of paper PMC8728848
# The list shows a part of the results.
# What was measured:
# Test in all cases: glycan array binding signal (z-score within array); higher = stronger binding
# Details in all cases: glycan notation: IUPAC condensed, linker removed
# GlcNAc(b1-3)GalNAc = biological target: GlcNAc(b1-3)GalNAc
# How it was run: (§1)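 Glycan array data were curated from 3228 arrays in the Consortium for Functional Glycomics database and kept only where the protein sequence was available. Glycan names were converted to IUPAC-condensed notation, and columns mapping to the same glycan were averaged. The binding signal is a within-array Z-score, averaged across arrays of the same protein sequence at different concentrations or buffers and across linkers. Negative Z-scores can be read as non-binding.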
# GlcNAc(b1-3)Man = biological target: GlcNAc(b1-3)Man
# How it was run: as §1
# [1] = biological target: GlcNAc(b1-3)[GlcNAc(b1-4)][GlcNAc(b1-6)]GlcNAc
# How it was run: as §1
# [2] = biological target: GlcNAc(b1-3)[GlcNAc(b1-6)]Gal(b1-4)GlcNAc
# How it was run: as §1
# [3] = biological target: GlcNAc(b1-3)[GlcNAc(b1-6)]GalNAc
# How it was run: as §1
# [4] = biological target: GlcNAc(b1-4)Gal(b1-4)GlcNAc
# How it was run: as §1
# GlcNAc(b1-4)GlcNAc = biological target: GlcNAc(b1-4)GlcNAc
# How it was run: as §1
# [5] = biological target: GlcNAc(b1-4)GlcNAc(b1-4)GlcNAc
# How it was run: as §1
# [6] = biological target: GlcNAc(b1-4)GlcNAc(b1-4)GlcNAc(b1-4)GlcNAc(b1-4)GlcNAc
# How it was run: as §1
# [7] = biological target: GlcNAc(b1-4)GlcNAc(b1-4)GlcNAc(b1-4)GlcNAc(b1-4)GlcNAc(b1-4)GlcNAc
# How it was run: as §1
# [8] = biological target: GlcNAc(b1-4)[GlcNAc(b1-6)]GalNAc
# How it was run: as §1
# [9] = biological target: GlcNAc(b1-6)Gal(b1-4)GlcNAc
# How it was run: as §1
# GlcNAc(b1-6)GalNAc = biological target: GlcNAc(b1-6)GalNAc
# How it was run: as §1
# [10] = biological target: GlcNAc6S(b1-3)Gal(b1-4)GlcNAc
# How it was run: as §1
# Kdn(a2-3)Gal(b1-3)GalNAc = biological target: Kdn(a2-3)Gal(b1-3)GalNAc
# How it was run: as §1
# Kdn(a2-3)Gal(b1-3)GlcNAc = biological target: Kdn(a2-3)Gal(b1-3)GlcNAc
# How it was run: as §1
# Kdn(a2-3)Gal(b1-4)Glc = biological target: Kdn(a2-3)Gal(b1-4)Glc
# How it was run: as §1
# Kdn(a2-3)Gal(b1-4)GlcNAc = biological target: Kdn(a2-3)Gal(b1-4)GlcNAc
# How it was run: as §1
# [11] = biological target: Kdn(a2-3)Gal(b1-4)[Fuc(a1-3)]GlcNAc
# How it was run: as §1
# Kdn(a2-6)Gal(b1-4)GlcNAc = biological target: Kdn(a2-6)Gal(b1-4)GlcNAc
# How it was run: as §1
# [12] = biological target: Man(a1-2)Man(a1-2)Man(a1-3)Man
# How it was run: as §1
# [13] = biological target: Man(a1-2)Man(a1-2)Man(a1-6)[Man(a1-3)]Man
# How it was run: as §1
# Man(a1-2)Man(a1-3)Man = biological target: Man(a1-2)Man(a1-3)Man
# How it was run: as §1
# [14] = biological target: Man(a1-2)Man(a1-3)[Man(a1-2)Man(a1-6)]Man
# How it was run: as §1
# [15] = biological target: Man(a1-2)Man(a1-3)[Man(a1-2)Man(a1-6)]Man(a1-6)[Man(a1-2)Man(a1-2)Man(a1-3)]Man
# How it was run: as §1
# [16] = biological target: Man(a1-2)Man(a1-3)[Man(a1-2)Man(a1-6)]Man(a1-6)[Man(a1-2)Man(a1-2)Man(a1-3)]Man(b1-4)GlcNAc(b1-4)GlcNAc
# How it was run: as §1
# [17] = biological target: Man(a1-2)Man(a1-3)[Man(a1-6)]Man(a1-6)[Man(a1-2)Man(a1-3)]Man(b1-4)GlcNAc(b1-4)GlcNAc
# How it was run: as §1
# [18] = biological target: Man(a1-2)Man(a1-6)[Man(a1-3)]Man(a1-6)[Man(a1-2)Man(a1-2)Man(a1-3)]Man
# How it was run: as §1
# [19] = biological target: Man(a1-2)Man(a1-6)[Man(a1-3)]Man(a1-6)[Man(a1-2)Man(a1-2)Man(a1-3)]Man(b1-4)GlcNAc(b1-4)GlcNAc
# How it was run: as §1
# Man(a1-3)[Man(a1-6)]Man = biological target: Man(a1-3)[Man(a1-6)]Man
# How it was run: as §1
# [20] = biological target: Man(a1-3)[Man(a1-6)]Man(a1-6)[Man(a1-2)Man(a1-3)]Man(b1-4)GlcNAc(b1-4)GlcNAc
# How it was run: as §1
# [21] = biological target: Man(a1-3)[Man(a1-6)]Man(a1-6)[Man(a1-3)]Man
# How it was run: as §1
# [22] = biological target: Man(a1-3)[Man(a1-6)]Man(a1-6)[Man(a1-3)]Man(b1-4)GlcNAc(b1-4)GlcNAc
# How it was run: as §1
# [23] = biological target: Man(a1-3)[Man(a1-6)]Man(b1-4)GlcNAc(b1-4)GlcNAc
# How it was run: as §1
# [24] = biological target: Man(a1-3)[Man(a1-6)]Man(b1-4)GlcNAc(b1-4)[Fuc(a1-6)]GlcNAc
# How it was run: as §1
# Man(a1-6)Man = biological target: Man(a1-6)Man
# How it was run: as §1
# Man(b1-4)GlcNAc = biological target: Man(b1-4)GlcNAc
# How it was run: as §1
# MurNAc(b1-4)GlcNAc = biological target: MurNAc(b1-4)GlcNAc
# How it was run: as §1
binder,measurement,setting,value
SabA (Helicobacter pylori) (protein) MGSSHHHHHHSSGLVPRGSHMENLYFQGEDNGFFVSAGYQIGEAVQMVKNTGELKNLNEKYEQLSQYLNQVASLKQSIQNANNIELVNSSLNYLKSFTNNNYNSTTQSPIFNAVQAVITSVLGFWSLYAGNYFTFFVGKKVGDSGQPASVQGNPPFKTIIENCSGIENCAMDQTTYDKMKKLAEDLQAAQTNSATKGNNLCALSGCAATDSTSNPPNSTVSNALNLAQQLMDLIANTKTAMMWKNIVISGVSNTSGAITSTNYPTQYAVFNNIKAMIPILQQAVTLSQSNHTLSASLQAQATGSQTNPKFAKDIYTFAQNQKQVISYAQDIFNLFNSIPAEQYKYLEKAYLKIPNAGSTPTNPYRQVVNLNQEVQTIKNNVSYYGNRVDAALSVARDVYNLKSNQAEIVTAYNDAKTLSEEISKLPHNQVNTKDIVTLPYDKNAPAAGQSNYQINPEQQSNLNQALAAMSNNPFKKVGMISSQNNNGA,glycan array binding signal (z-score),GlcNAc(b1-3)GalNAc,0.191
same,glycan array binding signal (z-score),GlcNAc(b1-3)Man,1.69
same,glycan array binding signal (z-score),[1],0.253
same,glycan array binding signal (z-score),[2],-0.211
same,glycan array binding signal (z-score),[3],-0.594
same,glycan array binding signal (z-score),[4],-0.173
same,glycan array binding signal (z-score),GlcNAc(b1-4)GlcNAc,-0.344
same,glycan array binding signal (z-score),[5],-0.052
same,glycan array binding signal (z-score),[6],-0.702
same,glycan array binding signal (z-score),[7],0.285
same,glycan array binding signal (z-score),[8],-0.072
same,glycan array binding signal (z-score),[9],-0.325
same,glycan array binding signal (z-score),GlcNAc(b1-6)GalNAc,0.444
same,glycan array binding signal (z-score),[10],0.452
same,glycan array binding signal (z-score),Kdn(a2-3)Gal(b1-3)GalNAc,-0.318
same,glycan array binding signal (z-score),Kdn(a2-3)Gal(b1-3)GlcNAc,-0.237
same,glycan array binding signal (z-score),Kdn(a2-3)Gal(b1-4)Glc,-0.181
same,glycan array binding signal (z-score),Kdn(a2-3)Gal(b1-4)GlcNAc,-0.622
same,glycan array binding signal (z-score),[11],1.18
same,glycan array binding signal (z-score),Kdn(a2-6)Gal(b1-4)GlcNAc,0.023
same,glycan array binding signal (z-score),[12],-0.006
same,glycan array binding signal (z-score),[13],0.041
same,glycan array binding signal (z-score),Man(a1-2)Man(a1-3)Man,0.442
same,glycan array binding signal (z-score),[14],-0.459
same,glycan array binding signal (z-score),[15],-0.119
same,glycan array binding signal (z-score),[16],-0.148
same,glycan array binding signal (z-score),[17],-0.009
same,glycan array binding signal (z-score),[18],-0.091
same,glycan array binding signal (z-score),[19],0.194
same,glycan array binding signal (z-score),Man(a1-3)[Man(a1-6)]Man,0.183
same,glycan array binding signal (z-score),[20],0.278
same,glycan array binding signal (z-score),[21],0.018
same,glycan array binding signal (z-score),[22],0.145
same,glycan array binding signal (z-score),[23],-0.465
same,glycan array binding signal (z-score),[24],-0.191
same,glycan array binding signal (z-score),Man(a1-6)Man,-0.738
same,glycan array binding signal (z-score),Man(b1-4)GlcNAc,-0.002
same,glycan array binding signal (z-score),MurNAc(b1-4)GlcNAc,-0.054

# Shown with bars between the fields: entries from further up
binder | measurement | setting | value
SabA (Helicobacter pylori) (protein) MGSSHHHHHHSSGLVPRGSHMENLYFQGEDNGFFVSAGYQIGEAVQMVKNTGELKNLNEKYEQLSQYLNQVASLKQSIQNANNIELVNSSLNYLKSFTNNNYNSTTQSPIFNAVQAVITSVLGFWSLYAGNYFTFFVGKKVGDSGQPASVQGNPPFKTIIENCSGIENCAMDQTTYDKMKKLAEDLQAAQTNSATKGNNLCALSGCAATDSTSNPPNSTVSNALNLAQQLMDLIANTKTAMMWKNIVISGVSNTSGAITSTNYPTQYAVFNNIKAMIPILQQAVTLSQSNHTLSASLQAQATGSQTNPKFAKDIYTFAQNQKQVISYAQDIFNLFNSIPAEQYKYLEKAYLKIPNAGSTPTNPYRQVVNLNQEVQTIKNNVSYYGNRVDAALSVARDVYNLKSNQAEIVTAYNDAKTLSEEISKLPHNQVNTKDIVTLPYDKNAPAAGQSNYQINPEQQSNLNQALAAMSNNPFKKVGMISSQNNNGA | glycan array binding signal (z-score) | [11] | 1.18
same | glycan array binding signal (z-score) | Kdn(a2-6)Gal(b1-4)GlcNAc | 0.023
same | glycan array binding signal (z-score) | [12] | -0.006
